# Measured values as given in PubChem BioAssay AID1508601 (ICCB-Longwood Screening Facility, Harvard Medical School, 2020).
# The chains behind the UniProt entries cited, without tags or fusion partners.
# UniProt P04637, whole entry: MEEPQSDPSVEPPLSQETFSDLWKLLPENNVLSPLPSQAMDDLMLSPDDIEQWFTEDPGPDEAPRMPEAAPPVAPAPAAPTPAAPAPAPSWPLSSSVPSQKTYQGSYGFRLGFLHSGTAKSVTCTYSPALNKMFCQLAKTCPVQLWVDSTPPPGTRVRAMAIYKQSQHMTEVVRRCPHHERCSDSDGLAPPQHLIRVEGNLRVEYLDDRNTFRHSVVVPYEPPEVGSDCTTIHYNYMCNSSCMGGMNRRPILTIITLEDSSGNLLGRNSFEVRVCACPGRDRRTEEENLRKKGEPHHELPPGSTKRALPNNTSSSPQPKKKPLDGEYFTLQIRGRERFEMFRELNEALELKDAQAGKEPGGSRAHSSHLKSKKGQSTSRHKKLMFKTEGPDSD
# The list shows a part of the results.
# Experiments:
# [1] = p53 stabilisation in HPV-positive human cells, imaging, p53-positive nuclei imaging, 24 h, 48 h (AID 1508601); details: 24/48 h, concentration not given here
# [2] = molecular target: Cellular tumor antigen p53 (Homo sapiens) (UniProt P04637); assay: as above; details: 24/48 h, measured here: p53 positive nuclei at 24 h, stronger effect = higher value, concentration not given here
smiles,measurement,setting,value
OCCSCCO,"nuclei count, normalised",[1]; measured here: cell number at 24 h,112%
same,"nuclei count, normalised",[1]; measured here: cell number at 48 h,107%
same,"p53-positive nuclei, normalised",[2],0.00292%
